Source: PMC7819943, “Rice protein-binding microarrays: a tool to detect cis-acting elements near promoter regions in rice”
The list shows a part of the results.

By UniProt entry, the sequences of proteins in these tests, tags left out.
UniProt Q0JBA9, entry or part of it: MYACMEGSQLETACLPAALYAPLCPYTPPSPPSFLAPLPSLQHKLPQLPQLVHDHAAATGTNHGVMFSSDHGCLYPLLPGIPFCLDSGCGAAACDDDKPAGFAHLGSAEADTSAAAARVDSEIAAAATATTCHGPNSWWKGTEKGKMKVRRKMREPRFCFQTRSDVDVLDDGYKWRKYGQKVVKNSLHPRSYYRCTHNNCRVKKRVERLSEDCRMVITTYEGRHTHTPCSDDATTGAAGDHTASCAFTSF

These sequences were tested against OsWRKY34 (Oryza sativa, UniProt Q0JBA9 1-250) (assay: protein-binding microarray (RPBM); PBS, 2% BSA, 51.3 ng/ul salmon testes DNA, 50 uM zinc acetate, 200 nM TF, 25 C, 1 h; high values mean tight binding). Conditions: protein: recombinant; tags: N-terminal polyhistidine and DsRed monomer fusion (pET32a); label: CyDye5-dUTP incorporated in the synthesized complementary strand; 3' TTTTT single-stranded linker to array surface; dsDNA, one strand shown.
Procedure, shortened: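 The binding signal is fluorescence intensity per array feature (arbitrary units). Readings came from an Axon 4000B scanner after a washed, 2% BSA-blocked, double-stranded custom Agilent array had been incubated for 1 h at 25 °C with 200 nM protein and 50 µM zinc acetate. The protein was a Ni–NTA-purified transcription factor fused N-terminally to polyhistidine and DsRed, expressed in E. coli BL21-CodonPlus.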

Sequence | binding signal
ATCCTCGTACCAGCGTACCTCAATACCCTCTATATCCGATCGGAGTCACCTAGTGCAG | 11800 fluorescence intensity (a.u.)
ATTTGGCCCAACGCCGCCTCGCTACAGAGACTATCTATAACGGAGTCACCTAGTGCAG | 8510 fluorescence intensity (a.u.)
ATCAAGCCAATCGTACACCATGTTTTCCTATCTACTGTAGCGGAGTCACCTAGTGCAG | 12400 fluorescence intensity (a.u.)
CCCCTAAACCGCACCATTATACTCCAGCTGCAGTCTTTCCCGGAGTCACCTAGTGCAG | 9710 fluorescence intensity (a.u.)
TCCCCGTTTCGCCGCTTTCCGCTCATCTCGCGTATAAAAACGGAGTCACCTAGTGCAG | 12600 fluorescence intensity (a.u.)
GATCGACTACGATAGTTCAGAGGGTATTTCGTACTTTTTCCGGAGTCACCTAGTGCAG | 8060 fluorescence intensity (a.u.)
GTGTGTTTGGAATGAGAAATGTGGGGTGGGATTGGAATTACGGAGTCACCTAGTGCAG | 10700 fluorescence intensity (a.u.)
TTAATAGATGACGCCGTTGATTTTTTCTCACATGTTTGACCGGAGTCACCTAGTGCAG | 11600 fluorescence intensity (a.u.)
GCTGCCTGCGCGCCGCCGCCACCGCCCGACGCCGCGGCGTCGGAGTCACCTAGTGCAG | 8520 fluorescence intensity (a.u.)
TCGATGACCCTGGCTGCTGGCTGCTTTGCCTCTTTTCTAGCGGAGTCACCTAGTGCAG | 8630 fluorescence intensity (a.u.)
GCTTCGAGCCTTCCTTGTCCAGCGTGGGGCGGGGCACTCCCGGAGTCACCTAGTGCAG | 11900 fluorescence intensity (a.u.)
TGCTTTACGCCCATCACCTTGGCACATCTGGATTTGAATCCGGAGTCACCTAGTGCAG | 9160 fluorescence intensity (a.u.)
TCCCGGCCCGTCTGACCAGTCAACGTCACTCTACAGAGCTCGGAGTCACCTAGTGCAG | 11000 fluorescence intensity (a.u.)
GCGTCGCCTGGGCGCCCATCCGCTCTGCCGCCGCGCCGCTCGGAGTCACCTAGTGCAG | 8720 fluorescence intensity (a.u.)
CTTAAGAATCGTTCGCTTCAGCTGACCTCTCTCCGCCCCGCGGAGTCACCTAGTGCAG | 8410 fluorescence intensity (a.u.)
GGGTGGAGGAGGTGGGGAGGCCGGCGAGACTCATGTGCGGCGGAGTCACCTAGTGCAG | 13100 fluorescence intensity (a.u.)
AAGTGGGTGAGTCCAATAGGTGTGCACGTGAGGGGAGGGGCGGAGTCACCTAGTGCAG | 10500 fluorescence intensity (a.u.)
CTCTCCCTCTCGCGTGTCCATTTCACGAATTCCTCGTCTCCGGAGTCACCTAGTGCAG | 11100 fluorescence intensity (a.u.)
AGGAAGCCACCCCATCGTCTTCAACCTCTCGATTCCGCTCCGGAGTCACCTAGTGCAG | 10400 fluorescence intensity (a.u.)
TATTTAAGTTCACCGCGGGTCACCACACCAGCTCACACACCGGAGTCACCTAGTGCAG | 9990 fluorescence intensity (a.u.)
CCTCTCGCCACCGTTGTTTGCCTTTGTCAATCTCCACCACCGGAGTCACCTAGTGCAG | 10400 fluorescence intensity (a.u.)
TATATATATATATATATATATATATGAAAGTTTTATTCATCGGAGTCACCTAGTGCAG | 8280 fluorescence intensity (a.u.)
ATAGTTTTTTTTTCTCGCCGGCGACAGTGAGCGCCCTTCTCGGAGTCACCTAGTGCAG | 8670 fluorescence intensity (a.u.)
GACTTGCCTGTATTATACTACTAACATTTGGTTGACTTGGCGGAGTCACCTAGTGCAG | 8780 fluorescence intensity (a.u.)
AAAAATAATTTGTGGACCAAAAACCGACCGCGCGACTTATCGGAGTCACCTAGTGCAG | 8160 fluorescence intensity (a.u.)
ACCCACAGTCCCACACCGTCCGTCCCCTTTTATCTCATGGCGGAGTCACCTAGTGCAG | 9120 fluorescence intensity (a.u.)
CACTGACACTTACATCGATGACCTATTTATAAATATATTTCGGAGTCACCTAGTGCAG | 8140 fluorescence intensity (a.u.)

Sequence | binding signal
GCCACGAGTTCCACGGCCGCGGCGTCGTCGTCGTCGTCGTCGGAGTCACCTAGTGCAG | 8090 fluorescence intensity (a.u.)
TTTCACCACCCCGGATCGACGCATGAATCTAACGCGAGCACGGAGTCACCTAGTGCAG | 8320 fluorescence intensity (a.u.)
AAGTGCAGTCTTGAATTATCTCTCGATCATGCAGTTCTTGCGGAGTCACCTAGTGCAG | 8940 fluorescence intensity (a.u.)
TCCCCGGCCGTCGCGCTCCGCTTTTCCTCCGCCGCCGCCTCGGAGTCACCTAGTGCAG | 8200 fluorescence intensity (a.u.)
ACTAGTACTAGTTGCATGTTAGCTCTGTTTCTAGCATGTTCGGAGTCACCTAGTGCAG | 8410 fluorescence intensity (a.u.)
GAGACACCACCCGCCGCCGCCGCCTCCTCCATTACCGAGACGGAGTCACCTAGTGCAG | 8790 fluorescence intensity (a.u.)
AGGTGGTGTTATTACCCATAGCACTTAATGTGGGCCAATGCGGAGTCACCTAGTGCAG | 8320 fluorescence intensity (a.u.)
CTAGTGGCGTGGTTGCTCCCCAACGAGATCGTGCATTCTCCGGAGTCACCTAGTGCAG | 8270 fluorescence intensity (a.u.)
ACCTTGTCTCCTTACCCAGCGTTTCCAACCATGCCTAACTCGGAGTCACCTAGTGCAG | 10400 fluorescence intensity (a.u.)
CCGGTAGTTTTTCCCCGTCGGCTCGGCTATTTAAATCAAGCGGAGTCACCTAGTGCAG | 8310 fluorescence intensity (a.u.)
CCGTCCACCACCGCCTTTCTTCGATCCGTCGCCACGCCCTCGGAGTCACCTAGTGCAG | 8150 fluorescence intensity (a.u.)
TCCTTTATTTATCCCTGCTTCCTGGGCCATTATGGGCTGACGGAGTCACCTAGTGCAG | 9040 fluorescence intensity (a.u.)
GACCGGCAACTCTTCCTTTTTCGAGCCGTGAAATCACCACCGGAGTCACCTAGTGCAG | 10200 fluorescence intensity (a.u.)
TAATACTACTCCCTCCGTTGCAGGTTATAAAACGTTTTGTCGGAGTCACCTAGTGCAG | 9290 fluorescence intensity (a.u.)
TTGATCGAGTGCCATTTTATATACACCGTTGTGCATTTCCCGGAGTCACCTAGTGCAG | 8820 fluorescence intensity (a.u.)
ACTTTATTACACACATAAACTTTCAACTTTACCGTCACATCGGAGTCACCTAGTGCAG | 9420 fluorescence intensity (a.u.)
CGTCCCTGACGTTGCACCTTGTCATCGGCGCTCTGCCATACGGAGTCACCTAGTGCAG | 8470 fluorescence intensity (a.u.)
AACATGTTTTACGCTGGTTTTATGCCTTGACGCGCACGAGCGGAGTCACCTAGTGCAG | 8310 fluorescence intensity (a.u.)
CCTCCACGCCGACGTCGCGCTGCGCCTGCCACCTTTATCTCGGAGTCACCTAGTGCAG | 10300 fluorescence intensity (a.u.)
TTATGTGTTAGGTATCCCCATGTTCTCCTAGTGATGTTTACGGAGTCACCTAGTGCAG | 9610 fluorescence intensity (a.u.)
TGTCACGGGAATGTCACCGGAGCAATGTCACCGAATCCCACGGAGTCACCTAGTGCAG | 8830 fluorescence intensity (a.u.)
TCTCATGCTCCTCTTTATTATTTCTTTATTATTAACTAGCCGGAGTCACCTAGTGCAG | 8580 fluorescence intensity (a.u.)
CTCCAGGGATGCCTTCGCCATCGCCCGCGCGCTCTCCATGCGGAGTCACCTAGTGCAG | 9160 fluorescence intensity (a.u.)
GTCTTTCTTATCTATAGTTGCTTTTCTTCATTGTCTTTTGCGGAGTCACCTAGTGCAG | 8290 fluorescence intensity (a.u.)
CCCTGTGCGCTCATCTGTCGGTGGGTCTGCCATTCAGCTCCGGAGTCACCTAGTGCAG | 10100 fluorescence intensity (a.u.)
TCTCACATTGTTATAGCTCACTTCTCTCTCCCTTTTATAACGGAGTCACCTAGTGCAG | 14700 fluorescence intensity (a.u.)
TGCATTTCTTTCTTATTGTCTTGTTGTGGAATGATTCATACGGAGTCACCTAGTGCAG | 8170 fluorescence intensity (a.u.)
